# Measurements published in patent publication US20220243249A1, “ANTAGONISTS OF CAMKII-DELTA 9 AND USES THEREOF” (PEKING UNIVERSITY, priority 2019, published 2022).
# These are yes or no findings as the source states them, for the method shown. Binding seen in cells or lysates may run through a third protein. Binding calls can cover weak binding; strength is not graded here. Sequences can lack the tags named with a protein.
# Molecular target: UBE2T-myc (plasmid-expressed in HEK293 cells) (Rattus norvegicus)
# Assay: co-immunoprecipitation in transfected HEK293 cells
binder,measurement,value
"AAKSLLKKPDGVKEPQTTVIHNPDGNKESTESSNTTIEDEDVK (peptide, not shown: large carriers) [peptide encoded by CaMKII-δ exons 13-16-17, tagged with Flag-GFP]",binding,binds
